# Assay results reported in PMC8079276.
# The chains behind the UniProt entries cited, without tags or fusion partners.
# UniProt Q61191: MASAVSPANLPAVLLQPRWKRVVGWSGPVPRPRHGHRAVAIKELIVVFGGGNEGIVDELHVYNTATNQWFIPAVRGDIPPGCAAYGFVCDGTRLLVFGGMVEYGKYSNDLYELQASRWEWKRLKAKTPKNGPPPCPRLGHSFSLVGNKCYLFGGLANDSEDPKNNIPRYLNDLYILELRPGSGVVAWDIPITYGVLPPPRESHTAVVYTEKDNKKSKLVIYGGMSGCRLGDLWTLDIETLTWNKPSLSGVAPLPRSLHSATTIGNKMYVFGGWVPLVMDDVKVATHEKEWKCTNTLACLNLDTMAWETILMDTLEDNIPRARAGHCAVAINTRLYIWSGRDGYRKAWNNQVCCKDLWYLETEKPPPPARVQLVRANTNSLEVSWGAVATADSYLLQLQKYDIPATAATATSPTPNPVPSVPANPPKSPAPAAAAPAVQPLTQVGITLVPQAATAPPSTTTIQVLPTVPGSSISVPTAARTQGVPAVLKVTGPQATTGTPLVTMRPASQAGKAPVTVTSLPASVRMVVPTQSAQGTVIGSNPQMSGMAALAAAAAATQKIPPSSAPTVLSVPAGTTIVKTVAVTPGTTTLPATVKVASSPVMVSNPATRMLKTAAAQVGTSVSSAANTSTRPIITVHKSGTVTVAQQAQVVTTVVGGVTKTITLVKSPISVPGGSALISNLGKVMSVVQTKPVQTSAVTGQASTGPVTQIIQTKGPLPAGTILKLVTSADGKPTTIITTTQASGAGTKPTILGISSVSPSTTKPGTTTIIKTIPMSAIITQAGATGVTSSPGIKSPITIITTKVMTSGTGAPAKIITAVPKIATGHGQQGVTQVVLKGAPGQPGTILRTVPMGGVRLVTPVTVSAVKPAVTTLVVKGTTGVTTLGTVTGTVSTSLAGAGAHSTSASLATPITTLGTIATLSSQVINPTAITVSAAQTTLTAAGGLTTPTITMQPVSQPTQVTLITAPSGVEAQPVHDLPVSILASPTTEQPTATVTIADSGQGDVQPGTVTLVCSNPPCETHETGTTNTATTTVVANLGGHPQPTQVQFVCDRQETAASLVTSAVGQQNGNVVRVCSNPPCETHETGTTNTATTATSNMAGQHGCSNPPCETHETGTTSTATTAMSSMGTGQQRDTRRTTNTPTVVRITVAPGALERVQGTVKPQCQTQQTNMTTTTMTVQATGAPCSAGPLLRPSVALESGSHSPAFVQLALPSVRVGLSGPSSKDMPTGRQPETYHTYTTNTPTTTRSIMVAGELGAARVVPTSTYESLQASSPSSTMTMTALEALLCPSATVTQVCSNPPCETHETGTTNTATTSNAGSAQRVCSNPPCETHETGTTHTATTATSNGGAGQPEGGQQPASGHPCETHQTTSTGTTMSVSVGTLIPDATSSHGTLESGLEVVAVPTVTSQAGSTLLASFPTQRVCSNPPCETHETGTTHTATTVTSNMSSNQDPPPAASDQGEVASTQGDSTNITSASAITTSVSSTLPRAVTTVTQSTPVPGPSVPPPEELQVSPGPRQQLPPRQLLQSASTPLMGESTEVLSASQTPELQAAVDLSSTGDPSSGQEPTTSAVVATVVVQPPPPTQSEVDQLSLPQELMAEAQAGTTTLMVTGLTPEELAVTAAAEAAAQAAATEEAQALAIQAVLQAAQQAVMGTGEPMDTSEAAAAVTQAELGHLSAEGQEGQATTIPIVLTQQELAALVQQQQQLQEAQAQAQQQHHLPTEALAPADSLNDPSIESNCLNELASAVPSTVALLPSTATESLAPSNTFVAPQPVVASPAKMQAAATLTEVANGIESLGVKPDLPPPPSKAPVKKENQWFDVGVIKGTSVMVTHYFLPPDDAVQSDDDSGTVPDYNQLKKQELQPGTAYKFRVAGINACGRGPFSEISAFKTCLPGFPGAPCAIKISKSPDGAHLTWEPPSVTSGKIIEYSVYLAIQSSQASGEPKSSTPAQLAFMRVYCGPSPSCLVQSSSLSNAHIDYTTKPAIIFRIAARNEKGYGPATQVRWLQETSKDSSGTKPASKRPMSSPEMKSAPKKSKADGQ
# UniProt Q9Z1R2: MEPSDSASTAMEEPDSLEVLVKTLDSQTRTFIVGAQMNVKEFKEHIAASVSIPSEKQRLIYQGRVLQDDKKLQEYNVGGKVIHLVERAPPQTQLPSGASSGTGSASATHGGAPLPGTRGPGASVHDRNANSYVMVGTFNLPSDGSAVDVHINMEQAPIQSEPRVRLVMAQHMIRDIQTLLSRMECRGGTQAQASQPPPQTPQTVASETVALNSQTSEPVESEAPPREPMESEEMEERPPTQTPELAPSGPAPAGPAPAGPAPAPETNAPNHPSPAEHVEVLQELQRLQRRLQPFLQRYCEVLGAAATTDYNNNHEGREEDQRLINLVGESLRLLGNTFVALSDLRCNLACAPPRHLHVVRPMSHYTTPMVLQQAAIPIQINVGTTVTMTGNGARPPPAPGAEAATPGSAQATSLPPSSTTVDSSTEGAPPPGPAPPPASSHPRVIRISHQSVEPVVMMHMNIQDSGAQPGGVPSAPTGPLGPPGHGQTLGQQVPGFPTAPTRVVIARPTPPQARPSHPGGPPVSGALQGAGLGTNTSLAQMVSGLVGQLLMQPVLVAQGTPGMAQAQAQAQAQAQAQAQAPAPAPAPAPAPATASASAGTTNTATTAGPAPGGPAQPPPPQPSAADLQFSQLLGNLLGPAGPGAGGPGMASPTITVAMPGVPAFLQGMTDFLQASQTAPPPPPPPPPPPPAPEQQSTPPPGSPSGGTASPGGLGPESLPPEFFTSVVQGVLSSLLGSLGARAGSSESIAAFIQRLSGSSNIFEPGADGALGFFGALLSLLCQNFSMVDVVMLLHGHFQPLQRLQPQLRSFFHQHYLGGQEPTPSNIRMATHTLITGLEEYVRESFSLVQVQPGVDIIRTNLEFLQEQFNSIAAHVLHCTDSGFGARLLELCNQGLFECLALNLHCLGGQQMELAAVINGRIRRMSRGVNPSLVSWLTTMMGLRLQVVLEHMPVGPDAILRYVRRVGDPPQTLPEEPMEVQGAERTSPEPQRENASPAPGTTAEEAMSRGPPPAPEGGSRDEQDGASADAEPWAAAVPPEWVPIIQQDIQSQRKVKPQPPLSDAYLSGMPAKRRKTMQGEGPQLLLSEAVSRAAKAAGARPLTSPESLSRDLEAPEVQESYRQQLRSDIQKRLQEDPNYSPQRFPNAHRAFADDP
# UniProt P58871: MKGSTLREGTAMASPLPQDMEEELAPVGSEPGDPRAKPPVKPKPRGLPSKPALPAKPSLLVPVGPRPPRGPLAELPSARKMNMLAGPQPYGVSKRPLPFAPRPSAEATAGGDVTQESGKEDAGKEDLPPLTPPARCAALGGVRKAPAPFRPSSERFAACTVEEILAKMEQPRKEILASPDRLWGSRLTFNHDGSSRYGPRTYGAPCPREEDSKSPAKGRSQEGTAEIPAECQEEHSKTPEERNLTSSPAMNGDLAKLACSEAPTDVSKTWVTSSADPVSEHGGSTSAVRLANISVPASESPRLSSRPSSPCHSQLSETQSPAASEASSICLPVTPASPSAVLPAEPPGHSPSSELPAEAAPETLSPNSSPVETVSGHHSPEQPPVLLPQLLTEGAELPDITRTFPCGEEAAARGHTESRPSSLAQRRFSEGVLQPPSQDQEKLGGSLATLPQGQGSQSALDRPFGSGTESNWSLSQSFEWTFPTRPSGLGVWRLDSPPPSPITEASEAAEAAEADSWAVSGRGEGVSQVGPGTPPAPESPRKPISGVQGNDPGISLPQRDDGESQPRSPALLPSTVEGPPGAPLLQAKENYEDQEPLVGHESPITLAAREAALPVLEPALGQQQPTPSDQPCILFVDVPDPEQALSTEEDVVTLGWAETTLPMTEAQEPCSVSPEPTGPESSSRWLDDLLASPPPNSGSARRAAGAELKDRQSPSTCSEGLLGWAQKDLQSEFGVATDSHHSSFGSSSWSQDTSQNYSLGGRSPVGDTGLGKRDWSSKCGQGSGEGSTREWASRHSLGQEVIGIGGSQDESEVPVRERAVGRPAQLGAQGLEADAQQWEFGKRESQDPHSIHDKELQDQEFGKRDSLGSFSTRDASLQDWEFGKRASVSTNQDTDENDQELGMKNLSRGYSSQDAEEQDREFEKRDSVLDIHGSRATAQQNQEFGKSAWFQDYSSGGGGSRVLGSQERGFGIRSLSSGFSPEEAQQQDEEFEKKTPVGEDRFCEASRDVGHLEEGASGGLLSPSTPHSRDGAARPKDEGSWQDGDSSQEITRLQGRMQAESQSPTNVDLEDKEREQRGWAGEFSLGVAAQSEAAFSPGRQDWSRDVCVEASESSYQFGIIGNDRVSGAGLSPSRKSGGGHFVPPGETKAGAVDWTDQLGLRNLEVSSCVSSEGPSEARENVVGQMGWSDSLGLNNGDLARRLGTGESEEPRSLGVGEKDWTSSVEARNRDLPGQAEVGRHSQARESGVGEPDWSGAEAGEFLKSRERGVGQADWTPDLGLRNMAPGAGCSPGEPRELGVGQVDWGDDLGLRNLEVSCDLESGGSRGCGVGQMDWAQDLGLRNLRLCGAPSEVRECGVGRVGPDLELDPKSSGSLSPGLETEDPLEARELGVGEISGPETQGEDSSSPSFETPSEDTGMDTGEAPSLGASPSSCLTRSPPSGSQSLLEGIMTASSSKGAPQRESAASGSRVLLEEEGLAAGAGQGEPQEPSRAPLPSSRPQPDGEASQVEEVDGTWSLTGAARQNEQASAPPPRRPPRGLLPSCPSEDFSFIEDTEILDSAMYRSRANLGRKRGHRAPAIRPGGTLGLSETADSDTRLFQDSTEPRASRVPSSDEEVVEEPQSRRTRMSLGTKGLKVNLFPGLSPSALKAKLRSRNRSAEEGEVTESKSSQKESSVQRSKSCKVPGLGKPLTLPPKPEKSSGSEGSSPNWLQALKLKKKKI
# No constants are given. Whether binding was seen depends on the method and setting. In cells and extracts the contact can be indirect. Some binding calls cover weakened binding; strength is not graded here. Tags and fused reporters may be left off the sequences shown.
# T1: UDP-N-acetylglucosamine-peptide N-acetylglucosaminyltransferase (mouse (endogenous in MEFs)) (UniProt Q8CGY8)
# T1 sequence: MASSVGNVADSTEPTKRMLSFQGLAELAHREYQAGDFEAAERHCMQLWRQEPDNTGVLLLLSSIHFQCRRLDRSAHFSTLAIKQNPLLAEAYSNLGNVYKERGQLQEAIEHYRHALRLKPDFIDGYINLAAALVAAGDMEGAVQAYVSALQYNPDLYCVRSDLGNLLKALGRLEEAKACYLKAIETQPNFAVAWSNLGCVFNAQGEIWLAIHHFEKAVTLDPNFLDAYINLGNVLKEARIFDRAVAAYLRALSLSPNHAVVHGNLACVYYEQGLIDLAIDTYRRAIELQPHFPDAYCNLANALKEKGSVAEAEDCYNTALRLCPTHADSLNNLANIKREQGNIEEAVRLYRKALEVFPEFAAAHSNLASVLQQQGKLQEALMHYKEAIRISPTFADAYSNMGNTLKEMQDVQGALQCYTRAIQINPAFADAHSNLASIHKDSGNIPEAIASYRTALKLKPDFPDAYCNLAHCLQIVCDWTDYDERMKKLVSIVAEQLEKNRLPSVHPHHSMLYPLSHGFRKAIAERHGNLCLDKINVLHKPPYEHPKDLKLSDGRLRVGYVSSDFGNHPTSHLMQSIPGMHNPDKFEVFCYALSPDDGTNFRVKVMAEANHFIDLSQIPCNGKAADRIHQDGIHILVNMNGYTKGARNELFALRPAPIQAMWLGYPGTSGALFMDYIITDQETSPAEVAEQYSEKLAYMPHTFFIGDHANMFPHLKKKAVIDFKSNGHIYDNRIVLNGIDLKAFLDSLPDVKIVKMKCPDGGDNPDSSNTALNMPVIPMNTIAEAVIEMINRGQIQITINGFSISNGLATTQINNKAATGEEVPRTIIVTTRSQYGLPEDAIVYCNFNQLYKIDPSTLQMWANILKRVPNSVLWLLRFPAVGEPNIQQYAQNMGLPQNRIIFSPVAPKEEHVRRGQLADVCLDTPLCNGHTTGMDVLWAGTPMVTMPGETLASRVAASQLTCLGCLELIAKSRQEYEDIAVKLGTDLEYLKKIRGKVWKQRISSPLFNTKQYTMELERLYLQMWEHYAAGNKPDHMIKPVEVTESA
# Columns and labels:
# [1] = target: T1, UDP-N-acetylglucosamine-peptide N-acetylglucosaminyltransferase (mouse (endogenous in MEFs)); experiment: co-IP; endogenous OGT immunoprecipitated (antibody AL24) from lysates of untreated, H2O2-treated (2.5 mM; 60 and 90 min, or 0 to 150 min) and OGT-null MEFs; Western blot for the partners
# [2] = target: Host cell factor 1 precursor (mouse (endogenous in MEFs)) (UniProt Q61191); experiment: co-IP; endogenous HCF1 immunoprecipitated (anti-HCF1 antibody) from lysates (300 ug) of MEFs treated with or without 2.5 mM H2O2 for 0 to 150 min; Western blot for OGT
binding [1],binding [2],Molecule
binds,,Host cell factor 1 precursor (from UniProt Q61191 1-2045)
binds,,Large proline-rich protein BAG6 isoform X8 (from UniProt Q9Z1R2 1-1154)
binds,,182-kDa tankyrase-1–binding protein (from UniProt P58871 1-1720)
,binds,"UDP-N-acetylglucosamine-peptide N-acetylglucosaminyltransferase (enzyme, UniProt Q8CGY8-1 1-1046) MASSVGNVADSTEPTKRMLSFQGLAELAHREYQAGDFEAAERHCMQLWRQEPDNTGVLLLLSSIHFQCRRLDRSAHFSTLAIKQNPLLAEAYSNLGNVYKERGQLQEAIEHYRHALRLKPDFIDGYINLAAALVAAGDMEGAVQAYVSALQYNPDLYCVRSDLGNLLKALGRLEEAKACYLKAIETQPNFAVAWSNLGCVFNAQGEIWLAIHHFEKAVTLDPNFLDAYINLGNVLKEARIFDRAVAAYLRALSLSPNHAVVHGNLACVYYEQGLIDLAIDTYRRAIELQPHFPDAYCNLANALKEKGSVAEAEDCYNTALRLCPTHADSLNNLANIKREQGNIEEAVRLYRKALEVFPEFAAAHSNLASVLQQQGKLQEALMHYKEAIRISPTFADAYSNMGNTLKEMQDVQGALQCYTRAIQINPAFADAHSNLASIHKDSGNIPEAIASYRTALKLKPDFPDAYCNLAHCLQIVCDWTDYDERMKKLVSIVAEQLEKNRLPSVHPHHSMLYPLSHGFRKAIAERHGNLCLDKINVLHKPPYEHPKDLKLSDGRLRVGYVSSDFGNHPTSHLMQSIPGMHNPDKFEVFCYALSPDDGTNFRVKVMAEANHFIDLSQIPCNGKAADRIHQDGIHILVNMNGYTKGARNELFALRPAPIQAMWLGYPGTSGALFMDYIITDQETSPAEVAEQYSEKLAYMPHTFFIGDHANMFPHLKKKAVIDFKSNGHIYDNRIVLNGIDLKAFLDSLPDVKIVKMKCPDGGDNPDSSNTALNMPVIPMNTIAEAVIEMINRGQIQITINGFSISNGLATTQINNKAATGEEVPRTIIVTTRSQYGLPEDAIVYCNFNQLYKIDPSTLQMWANILKRVPNSVLWLLRFPAVGEPNIQQYAQNMGLPQNRIIFSPVAPKEEHVRRGQLADVCLDTPLCNGHTTGMDVLWAGTPMVTMPGETLASRVAASQLTCLGCLELIAKSRQEYEDIAVKLGTDLEYLKKIRGKVWKQRISSPLFNTKQYTMELERLYLQMWEHYAAGNKPDHMIKPVEVTESA"
